Laboratory results from publication PMC7819943, “Rice protein-binding microarrays: a tool to detect cis-acting elements near promoter regions in rice”.
The list shows a part of the results.

Protein sequences, listed by entry. Tags and fused reporters are not part of them.
UniProt Q0JBA9, entry or part of it: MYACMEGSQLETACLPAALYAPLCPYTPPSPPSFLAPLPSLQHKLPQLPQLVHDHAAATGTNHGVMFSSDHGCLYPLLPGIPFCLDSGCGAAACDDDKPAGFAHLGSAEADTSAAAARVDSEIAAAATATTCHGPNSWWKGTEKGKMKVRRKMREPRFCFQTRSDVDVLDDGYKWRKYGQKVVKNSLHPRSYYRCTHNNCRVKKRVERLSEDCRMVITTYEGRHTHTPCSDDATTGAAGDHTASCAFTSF

Biological target: OsWRKY34 (Oryza sativa, UniProt Q0JBA9 1-250)
Assay: protein-binding microarray (RPBM); PBS, 2% BSA, 51.3 ng/ul salmon testes DNA, 50 uM zinc acetate, 200 nM TF, 25 C, 1 h; high values mean tight binding
Details: protein: recombinant; tags: N-terminal polyhistidine and DsRed monomer fusion (pET32a); label: CyDye5-dUTP incorporated in the synthesized complementary strand; 3' TTTTT single-stranded linker to array surface; dsDNA, one strand shown
In short: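 The binding signal for each feature is its fluorescence intensity in arbitrary units. An Axon 4000B scanner was used to read a custom Agilent array that had been made double-stranded with Cy5-dUTP primer extension, blocked with 2% BSA, incubated at 25 °C for 1 h with 200 nM protein in PBS, 2% BSA, salmon testes DNA and 50 µM zinc acetate, and washed. The protein was an N-terminal polyhistidine–DsRed transcription factor fusion from E. coli BL21-CodonPlus, purified on Ni–NTA.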

Sequence | binding signal
ATTCAACTTCCTTAGTTCCTATCTTCTTTATTTTTCAGAACGGAGTCACCTAGTGCAG | 8730 fluorescence intensity (a.u.)
CCATGCCATCCGTTTTAGGATAACTGTACACGATACATCACGGAGTCACCTAGTGCAG | 8960 fluorescence intensity (a.u.)
TTGTTGGGTGGGGACGTGGGGTGGGGTTCATGGAGTGGTTCGGAGTCACCTAGTGCAG | 24800 fluorescence intensity (a.u.)
GCGGCCGGCGGCGAGGTCGCGGACGGGGAGGTGGGGCGCGCGGAGTCACCTAGTGCAG | 10000 fluorescence intensity (a.u.)
ACGCGGCCGCCGAGCTGGACTCCTCATCCCCAGCTTCGCTCGGAGTCACCTAGTGCAG | 8600 fluorescence intensity (a.u.)
GTTGTGTTGTTGTTCATTATCACTTTTAGGTATTGTCATGCGGAGTCACCTAGTGCAG | 9080 fluorescence intensity (a.u.)
CGCCATGATTTTCGTTCATCCATAGCTTCTGCAGCGCCGGCGGAGTCACCTAGTGCAG | 11700 fluorescence intensity (a.u.)
GTTGTTGTTGTTGGTTTGGTTTGCGAGTCTGCAACCAATGCGGAGTCACCTAGTGCAG | 9020 fluorescence intensity (a.u.)
CTTTTTGTCAATTGTCCCTTTCAACTTTTCTCCCTTCTCCCGGAGTCACCTAGTGCAG | 8320 fluorescence intensity (a.u.)
TTGCTTTCAGTGGCTTTCCTTTACATTTCCAACACTGAGCCGGAGTCACCTAGTGCAG | 9530 fluorescence intensity (a.u.)
CGCCTCGCGGGAGACCACACATTAATTCCTCGCGCCCCATCGGAGTCACCTAGTGCAG | 9600 fluorescence intensity (a.u.)
ACTCTCTCCGCCGCCGGCCGCCGAATCTCCGGCGCCGATGCGGAGTCACCTAGTGCAG | 8220 fluorescence intensity (a.u.)
CGTAGGATTCTAAAGGGGTTGTGGTGATTTGGGACCTAGACGGAGTCACCTAGTGCAG | 8080 fluorescence intensity (a.u.)
CCCTTGTCATCGAAGAACGGGATGGCGTGGTGGGTATAGTCGGAGTCACCTAGTGCAG | 8470 fluorescence intensity (a.u.)
GTACCGTCACTCGCCGGCGTTCAGGCTGACCATTGAACCCCGGAGTCACCTAGTGCAG | 8370 fluorescence intensity (a.u.)
CACCAACGTCACATTTTGTCTTGTTTCTTTTTTAAAAAAACGGAGTCACCTAGTGCAG | 8650 fluorescence intensity (a.u.)
AACGCCATGTTTTACGTTTTCCCGCGACTTTGTTGGCGCGCGGAGTCACCTAGTGCAG | 8210 fluorescence intensity (a.u.)
CCTCTCAATTTTCCAATTTCATTTGTTACTTTTTTGTCACCGGAGTCACCTAGTGCAG | 9580 fluorescence intensity (a.u.)
CCCCATCACCAGCATTGGCTCGTTCAACTTCCCCAGCTACCGGAGTCACCTAGTGCAG | 10000 fluorescence intensity (a.u.)
CCCCGACGACCGGTCACTGCAATAACTCGCCATCACCTAGCGGAGTCACCTAGTGCAG | 8840 fluorescence intensity (a.u.)
ACATCTCGCGTTGCGCCGCGCGCTTCTCTCCCACTCCACTCGGAGTCACCTAGTGCAG | 12400 fluorescence intensity (a.u.)

Sequence | binding signal
ACTATCTATCTCTATTCACAGTCTTGTAGTTATTAAGTACCGGAGTCACCTAGTGCAG | 9960 fluorescence intensity (a.u.)
CCGGCCCGTCTTGGCACGGCCCATTTGGCCAGGTCTACCTCGGAGTCACCTAGTGCAG | 8050 fluorescence intensity (a.u.)
AACAGTGTTCGGTTTGGATCCGCGCGCCGTCTGAGTTTTCCGGAGTCACCTAGTGCAG | 8810 fluorescence intensity (a.u.)
GGAGGTCGTGGGAACAAATTCTTTCATATATGTGTGTGCTCGGAGTCACCTAGTGCAG | 9850 fluorescence intensity (a.u.)
CATCGCCATCGCCATCGCCAATCACACTCTCTGTTAGCTCCGGAGTCACCTAGTGCAG | 8160 fluorescence intensity (a.u.)
ATCTTTGTGCGTCTTGACTATCTAGCAATTCAGTTGCTTTCGGAGTCACCTAGTGCAG | 9630 fluorescence intensity (a.u.)
TGTAATAAGTACCATCCTTCGTTTTACGTTAGCACTCTTTCGGAGTCACCTAGTGCAG | 8630 fluorescence intensity (a.u.)
TATCTGTTCTTCTTTGCAATAATCTGTGTGCATTTGGAGCCGGAGTCACCTAGTGCAG | 8780 fluorescence intensity (a.u.)
TCACTGCCATATACATGATACTTACATACCGACGTACTACCGGAGTCACCTAGTGCAG | 12200 fluorescence intensity (a.u.)
AATTTATAACCGTGACCTGCTGCCATATGCTAACCGTTTACGGAGTCACCTAGTGCAG | 8260 fluorescence intensity (a.u.)
TTAGTGTTCGGTTAAAACAAGTTTTACAATGGGATTCTCTCGGAGTCACCTAGTGCAG | 8480 fluorescence intensity (a.u.)
AAACCGGCACTGATATGCCTTTTCAACTGGTATTGTTGACCGGAGTCACCTAGTGCAG | 8410 fluorescence intensity (a.u.)
TTTGACGCCGTTGACTTTTTTAAACATGCTTGATCATTCACGGAGTCACCTAGTGCAG | 13700 fluorescence intensity (a.u.)
AGCCGTTGTTCTTCATGTTCGTTTCAGTATTTAACGATACCGGAGTCACCTAGTGCAG | 8200 fluorescence intensity (a.u.)
CTTGTCAGCTTACACCCATGCTCTCTCAAGACATTGTTCTCGGAGTCACCTAGTGCAG | 9530 fluorescence intensity (a.u.)
GAGGTGTGTGTTCGTAGAGATGAGTGCGTGCGCGTTGTGACGGAGTCACCTAGTGCAG | 9140 fluorescence intensity (a.u.)
TACTTTGGTTGACATTTTATTGGGCTCATTATACTTGGCACGGAGTCACCTAGTGCAG | 8960 fluorescence intensity (a.u.)
CGGGACTTGGGACAAATACAATCTACACATTCTGTCATCTCGGAGTCACCTAGTGCAG | 8190 fluorescence intensity (a.u.)
GCACCACAAATGTCCGCTTTCCAACTGCTATGGCGTATACCGGAGTCACCTAGTGCAG | 13400 fluorescence intensity (a.u.)
ACATTACTACCAGCAGCCCATTTCAGTTGCATTGAACTCTCGGAGTCACCTAGTGCAG | 10000 fluorescence intensity (a.u.)
GCCGTCGCCCTCCACCACCGTACAGCTAGTAGCCCGACGCCGGAGTCACCTAGTGCAG | 8560 fluorescence intensity (a.u.)

Sequence | binding signal
TTAGGGTTTCGTGTTTCGTCCCGCCGCCGGGTTCCCGCGACGGAGTCACCTAGTGCAG | 8770 fluorescence intensity (a.u.)
GTTTGTGGAGTGTTATATCACATGTTAATACACCTTTCCACGGAGTCACCTAGTGCAG | 8060 fluorescence intensity (a.u.)
TCTGAATTTGTGGTGGTTTCACTTTCATCGGTTCATCGCTCGGAGTCACCTAGTGCAG | 8970 fluorescence intensity (a.u.)
TCAGCGCGCACGTGCTTAATCGAATCGATTATGTTTTCATCGGAGTCACCTAGTGCAG | 8700 fluorescence intensity (a.u.)
CGTGAACACTGTCCGCCTGGCTGTCCTACTCTTCCTTCTCCGGAGTCACCTAGTGCAG | 9190 fluorescence intensity (a.u.)
ACTATATCAGTACGCCACAATCCCGTTACATCTCTAAAATCGGAGTCACCTAGTGCAG | 9750 fluorescence intensity (a.u.)
TAGTCCACCTTTTATTACCCAAGTTTCAATTTGGACCACCCGGAGTCACCTAGTGCAG | 9740 fluorescence intensity (a.u.)
TCCTAACTCGAGTCTTTTTCTTCTCTCTACGCCAGAATTACGGAGTCACCTAGTGCAG | 11300 fluorescence intensity (a.u.)
ACCTACTTTTCGTCCCTTAATTCTGTGGCTATGTTCAAATCGGAGTCACCTAGTGCAG | 12700 fluorescence intensity (a.u.)
GGGGTTATAGATTGGATTTTTTTTAACGGAGGGAAGAGAGCGGAGTCACCTAGTGCAG | 10400 fluorescence intensity (a.u.)
ATACCACCTTATATACTTTGCCAAAACCACCTTTTCCAAGCGGAGTCACCTAGTGCAG | 9040 fluorescence intensity (a.u.)
TTGCATCACGTACGGATAAATCAAACGTCTTTTTTTTTTCCGGAGTCACCTAGTGCAG | 8800 fluorescence intensity (a.u.)
AATACCTTGGCCGCTCAATAGTAACCCAACGTGTTTCGCACGGAGTCACCTAGTGCAG | 9910 fluorescence intensity (a.u.)
GGTAGCCCGAGGTGGTGGTGGGTTCTGGAGGCGGTGAATCCGGAGTCACCTAGTGCAG | 10200 fluorescence intensity (a.u.)
ACTAAATTTGATTTTTCTTATTTTTGTTTTAAGGCCAACTCGGAGTCACCTAGTGCAG | 8270 fluorescence intensity (a.u.)
TCTGACACCTATCTCTCCTGGATTCTCCATGCTTTCTTTCCGGAGTCACCTAGTGCAG | 10300 fluorescence intensity (a.u.)
ATGCCCTGACTTTACCCAAACATCAGACTATGCATCTGAACGGAGTCACCTAGTGCAG | 8950 fluorescence intensity (a.u.)
TTGCTTGTGTTGGGCCGTAGGGTTTTTGTTTTTTTTTTTGCGGAGTCACCTAGTGCAG | 8410 fluorescence intensity (a.u.)
AATTTATAAAATTCATCGCATAAATTATTTGAATTTTGGTCGGAGTCACCTAGTGCAG | 8260 fluorescence intensity (a.u.)
AAAATTTTATTTTTCATGTGTGGCTTATTGTCCTTTTTTGCGGAGTCACCTAGTGCAG | 9470 fluorescence intensity (a.u.)
CTTATTAGTCATTTACAAGTTTACATGTCTCACTCAATTTCGGAGTCACCTAGTGCAG | 9260 fluorescence intensity (a.u.)

An excerpt of these results, in CSV form:
Sequence,binding signal
GTTTGTGGAGTGTTATATCACATGTTAATACACCTTTCCACGGAGTCACCTAGTGCAG,8060 fluorescence intensity (a.u.)
TCTGAATTTGTGGTGGTTTCACTTTCATCGGTTCATCGCTCGGAGTCACCTAGTGCAG,8970 fluorescence intensity (a.u.)
TCAGCGCGCACGTGCTTAATCGAATCGATTATGTTTTCATCGGAGTCACCTAGTGCAG,8700 fluorescence intensity (a.u.)
CGTGAACACTGTCCGCCTGGCTGTCCTACTCTTCCTTCTCCGGAGTCACCTAGTGCAG,9190 fluorescence intensity (a.u.)

Continued.

Sequence | binding signal
ACAACATGGTTTACCCTGCCAATTGTCCCAATGTCCCATTCGGAGTCACCTAGTGCAG | 8170 fluorescence intensity (a.u.)
CACACATTTATAAATGAGGCCTTCGTGCATGTCTTTATATCGGAGTCACCTAGTGCAG | 9760 fluorescence intensity (a.u.)
GGGCTCTGGTGGCGTTTCCCATTCCGCGCGCACCACACTGCGGAGTCACCTAGTGCAG | 9210 fluorescence intensity (a.u.)
CATTTTAGTATGTTAGACTGTGTATTGTTTGCTGTTAATTCGGAGTCACCTAGTGCAG | 9120 fluorescence intensity (a.u.)
TACTCCATTTGGGGCCTCCACTTGATTGTTCTTTCTTGCTCGGAGTCACCTAGTGCAG | 9040 fluorescence intensity (a.u.)
TCTCATTTACGCTTCATTCACTTTGCCTGCAACCAATCGCCGGAGTCACCTAGTGCAG | 8690 fluorescence intensity (a.u.)
TCTCGTGTTTTATGCTTAACAGAGCTCTTGTTTCTGGCATCGGAGTCACCTAGTGCAG | 8900 fluorescence intensity (a.u.)
ACCATCCTACATCAAGGAAACGTCTCGAGCCACCTCGCCGCGGAGTCACCTAGTGCAG | 9050 fluorescence intensity (a.u.)
TGTAGTATAGTGTGTGTGTGTGTGTATATATATATATATACGGAGTCACCTAGTGCAG | 8170 fluorescence intensity (a.u.)
GAGCTTCGACGACGCCGGCTTTGGCCCTGTCCCCGCCAGGCGGAGTCACCTAGTGCAG | 9230 fluorescence intensity (a.u.)
GGAAAAGAACACCGGTCCATTTTGCAACTATTGTGAAGTTCGGAGTCACCTAGTGCAG | 8220 fluorescence intensity (a.u.)
CTCAGCTTCCGTTATTACCTCTGCGCACAAGTTACCGGGCCGGAGTCACCTAGTGCAG | 8720 fluorescence intensity (a.u.)
AATCTATTGTTGCCACTTTTTTGTGCTTTTAAATTAGTCACGGAGTCACCTAGTGCAG | 10800 fluorescence intensity (a.u.)
CTGCTGTATTCACATATCAGATCTGGTTCAAACGAACTTCCGGAGTCACCTAGTGCAG | 9100 fluorescence intensity (a.u.)
TTTGTTCGGTTGTGGGTTTTGAGATAAGAAATTATTATCACGGAGTCACCTAGTGCAG | 8080 fluorescence intensity (a.u.)
CTTTTTGCTTCACTCTGTGTCCATCTTGACCTGCATGGCTCGGAGTCACCTAGTGCAG | 9900 fluorescence intensity (a.u.)
GCGCGGCGTTGTTGGGTGTGTTCGTGAATCGGGCGGGATGCGGAGTCACCTAGTGCAG | 10500 fluorescence intensity (a.u.)
AGAATGTCTTGCGCGCTAACCACACTTATCGCGTGATTTTCGGAGTCACCTAGTGCAG | 8120 fluorescence intensity (a.u.)
GTTTTATTTTTTCAAGCAGACAAAATATTTTCACTTTTACCGGAGTCACCTAGTGCAG | 9870 fluorescence intensity (a.u.)
CCTTAGCCGCGCTCGCCACCACCTCCTCACTCCTCTCACTCGGAGTCACCTAGTGCAG | 8770 fluorescence intensity (a.u.)
TCGCCTACCCGCTGCAACCATACCCCACCCGACATGGACCCGGAGTCACCTAGTGCAG | 9190 fluorescence intensity (a.u.)

Random excerpt: 3 entries already listed, in no set order.
Sequence | binding signal
ACATTACTACCAGCAGCCCATTTCAGTTGCATTGAACTCTCGGAGTCACCTAGTGCAG | 10000 fluorescence intensity (a.u.)
AAACCGGCACTGATATGCCTTTTCAACTGGTATTGTTGACCGGAGTCACCTAGTGCAG | 8410 fluorescence intensity (a.u.)
GGAAAAGAACACCGGTCCATTTTGCAACTATTGTGAAGTTCGGAGTCACCTAGTGCAG | 8220 fluorescence intensity (a.u.)
